# PubChem BioAssay AID1508597 | Cure First – 2020
# Assay: 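Knock-downs altering ovarian cancer cell survival with or without PARP inhibitor rucaparib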 (primary screen)
# Cell system: human ovarian carcinoma lines grown from tumours: OCI-P5x (papillary serous) and OCI-C5x (clear cell)
# Reagent: siRNA pool against human genes, 1.25 pmol siRNA per well
# Timing: 72 h or 96 h, depending on the cell culture
# Treatment: rucaparib 20 µM (about IC30) or vehicle, present until read-out
# Rucaparib or vehicle: Vehicle
# Cell line: OCI-P5x (serous)
# Read-out: 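ATP luminescence measured at 72 or 96 h according to the culture, then normalised and expressed as percent viability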
# Scale: viability, normalised: higher = more viable cells remaining
# Call rule: 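a well counts as a hit if its normalised viability is under 80 percent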
# Meaning of the calls: active = viability under 80%; inactive = viability 80% or more
# Shown is an unselected part of the about 2,100 reagents, under one of the conditions tested. 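Calls flag viability under 80% in either arm, not effects specific to rucaparib; the reference for percent is not stated.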 A number with no mark means an inactive call. Some reagents were tested in more than one well and are listed for each. The record does not give: the 100% reference.
gene symbol,technical replicate,"viability, normalised (%)"
FAM91A1,1,48.8 (active)
FAM91A1,2,59.4 (active)
FAM91A1,3,67.8 (active)
MYO6,1,58.7 (active)
MYO6,2,50.3 (active)
MYO6,3,66.5 (active)
PARP3,1,53.7 (active)
PARP3,1,44.1 (active)
PARP3,2,46.5 (active)
PARP3,2,55.2 (active)
PARP3,3,64 (active)
PARP3,3,82.3
PHF2,1,68.9 (active)
PHF2,2,59.2 (active)
PHF2,3,93.5
PSIP1,1,66.4 (active)
PSIP1,2,51.1 (active)
PSIP1,3,87.6
ZBTB7A,1,77 (active)
ZBTB7A,2,92.9
ZBTB7A,3,96.7
IRAK4,1,73.6 (active)
IRAK4,2,56.5 (active)
IRAK4,3,53.8 (active)
CREBBP,1,59.3 (active)
CREBBP,2,65 (active)
CREBBP,3,64.2 (active)
ADCK5,1,78.4 (active)
ADCK5,2,70.3 (active)
ADCK5,3,57.8 (active)
KDM2B,1,78.7 (active)
KDM2B,2,92.4
KDM2B,3,82.1
ALPK3,1,62.3 (active)
ALPK3,2,85.2
ALPK3,3,62.3 (active)
DHX30,1,59 (active)
DHX30,2,62.8 (active)
DHX30,3,67.6 (active)
POLR3K,1,71 (active)
POLR3K,2,69.4 (active)
POLR3K,3,66.9 (active)
MED10,1,84.4
MED10,2,96.8
MED10,3,91.5
POLH,1,68.1 (active)
POLH,1,67.4 (active)
POLH,2,71 (active)
POLH,2,41.9 (active)
POLH,3,63 (active)
POLH,3,72.8 (active)
APEX1,1,82.1
APEX1,1,66.7 (active)
APEX1,2,76 (active)
APEX1,2,75.8 (active)
APEX1,3,77.5 (active)
APEX1,3,77.1 (active)
